{"source": "paper PMC11164925", "system": "ParR", "assay": "EMSA", "details": "275 ng parC, 24-720 uM ParR, 0.1 ug/uL salmon sperm DNA competitor; 5' biotin on forward primer (biotinylated primer; exact position not stated); 20 mM HEPES pH 7.6, 150 mM KCl, 5 mM MgCl2, 1 mM DTT, 1 mg/ml BSA, 0.1 ug/uL sonicated salmon sperm DNA, 5% glycerol, room temperature 30 min; 1.5% magnesium-agarose gel; recombinant protein; protein details: N-terminal 6-His (pET28a, not cleaved); label: biotin", "note": "For at least one entry, the source does not settle the construct or the ends of the probe."}
{"sequence": "CATATGTTGTTACCCGCCAAACAAAACCCAAAAACAACCCATACCCAACCCAATAAAACACCAAAACAAGACAAATAATCATTGATTGATGGTTGAAATGGGGTAAACTTGACAAACAAACCCACTTAAAACCCAAAACATACCCAAACACACACCAAAAAAACACCATAAGGAGTTTTATAAATGTTGGTATTCATTGATGACGGTTCAACAAACATCAAACTGGATCC (double strand) [biotinylated parC (230 bp)]", "values": [{"measurement": "binding result", "result": "binds"}]}
